Data taken from paper doi:10.1101/2021.07.29.454247.
Like-named read-outs stand apart in the source and are kept apart here. No constants are given. Whether binding was seen depends on the method and setting. In cells and extracts the contact can be indirect. Some results given as binding are weak or reduced against the parent protein; the word gives no strength.

Amino acid sequences for entries named in this document (tags omitted). A change or cut given only in a name is not applied to a line headed by its entry. Residues count along the entry.
UniProt Q00959, 23-1464: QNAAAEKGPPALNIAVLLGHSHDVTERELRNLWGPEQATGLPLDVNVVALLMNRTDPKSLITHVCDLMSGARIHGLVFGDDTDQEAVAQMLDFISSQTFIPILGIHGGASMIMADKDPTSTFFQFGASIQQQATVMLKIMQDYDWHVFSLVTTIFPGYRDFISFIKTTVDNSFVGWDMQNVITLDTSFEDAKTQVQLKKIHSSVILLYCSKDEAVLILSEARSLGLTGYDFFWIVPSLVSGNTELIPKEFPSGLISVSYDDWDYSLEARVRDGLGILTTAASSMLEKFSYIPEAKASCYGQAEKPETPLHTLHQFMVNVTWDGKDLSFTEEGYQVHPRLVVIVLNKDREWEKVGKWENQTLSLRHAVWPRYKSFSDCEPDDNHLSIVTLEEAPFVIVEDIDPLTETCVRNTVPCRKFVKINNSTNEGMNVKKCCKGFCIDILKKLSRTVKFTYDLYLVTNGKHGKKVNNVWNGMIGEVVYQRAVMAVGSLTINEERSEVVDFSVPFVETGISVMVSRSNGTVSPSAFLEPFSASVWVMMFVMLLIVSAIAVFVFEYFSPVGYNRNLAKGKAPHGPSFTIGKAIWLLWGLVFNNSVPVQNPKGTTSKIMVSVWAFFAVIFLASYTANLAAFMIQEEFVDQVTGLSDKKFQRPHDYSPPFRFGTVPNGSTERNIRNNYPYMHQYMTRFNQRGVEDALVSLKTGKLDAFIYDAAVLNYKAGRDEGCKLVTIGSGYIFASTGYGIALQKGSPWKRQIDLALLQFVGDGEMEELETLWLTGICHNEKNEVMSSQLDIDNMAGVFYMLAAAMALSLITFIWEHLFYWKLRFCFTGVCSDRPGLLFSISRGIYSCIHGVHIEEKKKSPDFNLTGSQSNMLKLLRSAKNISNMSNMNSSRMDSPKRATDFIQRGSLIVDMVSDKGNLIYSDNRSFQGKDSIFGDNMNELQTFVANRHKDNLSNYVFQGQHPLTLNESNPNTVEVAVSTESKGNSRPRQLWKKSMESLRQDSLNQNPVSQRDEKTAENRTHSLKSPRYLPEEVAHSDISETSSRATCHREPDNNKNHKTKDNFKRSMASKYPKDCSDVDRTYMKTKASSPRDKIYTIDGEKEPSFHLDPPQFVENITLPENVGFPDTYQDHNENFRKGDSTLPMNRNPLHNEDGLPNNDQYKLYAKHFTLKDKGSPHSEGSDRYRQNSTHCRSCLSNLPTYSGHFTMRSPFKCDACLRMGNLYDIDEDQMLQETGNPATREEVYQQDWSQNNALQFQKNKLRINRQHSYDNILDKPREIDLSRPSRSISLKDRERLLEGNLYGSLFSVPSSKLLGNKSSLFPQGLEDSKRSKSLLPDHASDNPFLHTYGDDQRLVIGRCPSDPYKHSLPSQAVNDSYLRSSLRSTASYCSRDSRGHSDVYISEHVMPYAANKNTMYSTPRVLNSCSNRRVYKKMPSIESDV
UniProt Q00960, 27-1482: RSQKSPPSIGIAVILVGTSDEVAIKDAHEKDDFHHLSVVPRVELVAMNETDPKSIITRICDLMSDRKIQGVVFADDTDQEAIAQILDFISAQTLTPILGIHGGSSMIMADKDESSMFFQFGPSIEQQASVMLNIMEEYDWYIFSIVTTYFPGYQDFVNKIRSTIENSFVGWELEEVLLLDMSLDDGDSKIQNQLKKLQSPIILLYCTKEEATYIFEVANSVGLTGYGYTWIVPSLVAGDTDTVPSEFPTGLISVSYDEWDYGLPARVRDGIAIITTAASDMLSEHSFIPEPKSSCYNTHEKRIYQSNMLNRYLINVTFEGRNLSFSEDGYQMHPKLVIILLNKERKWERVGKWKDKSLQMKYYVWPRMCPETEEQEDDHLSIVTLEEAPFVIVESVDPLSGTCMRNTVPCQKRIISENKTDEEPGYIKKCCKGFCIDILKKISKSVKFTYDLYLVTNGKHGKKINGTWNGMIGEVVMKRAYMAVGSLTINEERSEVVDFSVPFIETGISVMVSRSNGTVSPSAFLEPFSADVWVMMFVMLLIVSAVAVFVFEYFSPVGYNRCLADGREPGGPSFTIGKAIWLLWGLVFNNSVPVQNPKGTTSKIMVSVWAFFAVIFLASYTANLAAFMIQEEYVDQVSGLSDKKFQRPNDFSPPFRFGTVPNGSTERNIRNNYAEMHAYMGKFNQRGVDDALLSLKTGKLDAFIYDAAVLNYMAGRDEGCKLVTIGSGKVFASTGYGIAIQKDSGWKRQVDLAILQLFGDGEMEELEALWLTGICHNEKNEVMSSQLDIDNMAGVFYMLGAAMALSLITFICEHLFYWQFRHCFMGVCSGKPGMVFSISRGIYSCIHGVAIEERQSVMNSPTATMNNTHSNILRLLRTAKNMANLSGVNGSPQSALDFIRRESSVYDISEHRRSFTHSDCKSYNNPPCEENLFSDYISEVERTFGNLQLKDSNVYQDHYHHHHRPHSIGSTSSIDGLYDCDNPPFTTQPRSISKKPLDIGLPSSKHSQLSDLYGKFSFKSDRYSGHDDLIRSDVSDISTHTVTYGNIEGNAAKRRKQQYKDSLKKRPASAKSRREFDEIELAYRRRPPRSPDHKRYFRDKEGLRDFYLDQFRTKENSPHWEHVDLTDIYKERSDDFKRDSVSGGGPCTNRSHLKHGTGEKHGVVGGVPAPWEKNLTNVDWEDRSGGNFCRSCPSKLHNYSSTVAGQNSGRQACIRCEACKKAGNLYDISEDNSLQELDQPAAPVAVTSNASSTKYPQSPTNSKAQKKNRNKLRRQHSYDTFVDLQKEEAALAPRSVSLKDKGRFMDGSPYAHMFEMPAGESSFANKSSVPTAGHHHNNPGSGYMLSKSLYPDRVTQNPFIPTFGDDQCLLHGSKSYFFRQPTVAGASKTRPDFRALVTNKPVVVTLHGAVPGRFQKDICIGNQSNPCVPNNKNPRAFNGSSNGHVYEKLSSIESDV
UniProt Q91YD4, whole entry: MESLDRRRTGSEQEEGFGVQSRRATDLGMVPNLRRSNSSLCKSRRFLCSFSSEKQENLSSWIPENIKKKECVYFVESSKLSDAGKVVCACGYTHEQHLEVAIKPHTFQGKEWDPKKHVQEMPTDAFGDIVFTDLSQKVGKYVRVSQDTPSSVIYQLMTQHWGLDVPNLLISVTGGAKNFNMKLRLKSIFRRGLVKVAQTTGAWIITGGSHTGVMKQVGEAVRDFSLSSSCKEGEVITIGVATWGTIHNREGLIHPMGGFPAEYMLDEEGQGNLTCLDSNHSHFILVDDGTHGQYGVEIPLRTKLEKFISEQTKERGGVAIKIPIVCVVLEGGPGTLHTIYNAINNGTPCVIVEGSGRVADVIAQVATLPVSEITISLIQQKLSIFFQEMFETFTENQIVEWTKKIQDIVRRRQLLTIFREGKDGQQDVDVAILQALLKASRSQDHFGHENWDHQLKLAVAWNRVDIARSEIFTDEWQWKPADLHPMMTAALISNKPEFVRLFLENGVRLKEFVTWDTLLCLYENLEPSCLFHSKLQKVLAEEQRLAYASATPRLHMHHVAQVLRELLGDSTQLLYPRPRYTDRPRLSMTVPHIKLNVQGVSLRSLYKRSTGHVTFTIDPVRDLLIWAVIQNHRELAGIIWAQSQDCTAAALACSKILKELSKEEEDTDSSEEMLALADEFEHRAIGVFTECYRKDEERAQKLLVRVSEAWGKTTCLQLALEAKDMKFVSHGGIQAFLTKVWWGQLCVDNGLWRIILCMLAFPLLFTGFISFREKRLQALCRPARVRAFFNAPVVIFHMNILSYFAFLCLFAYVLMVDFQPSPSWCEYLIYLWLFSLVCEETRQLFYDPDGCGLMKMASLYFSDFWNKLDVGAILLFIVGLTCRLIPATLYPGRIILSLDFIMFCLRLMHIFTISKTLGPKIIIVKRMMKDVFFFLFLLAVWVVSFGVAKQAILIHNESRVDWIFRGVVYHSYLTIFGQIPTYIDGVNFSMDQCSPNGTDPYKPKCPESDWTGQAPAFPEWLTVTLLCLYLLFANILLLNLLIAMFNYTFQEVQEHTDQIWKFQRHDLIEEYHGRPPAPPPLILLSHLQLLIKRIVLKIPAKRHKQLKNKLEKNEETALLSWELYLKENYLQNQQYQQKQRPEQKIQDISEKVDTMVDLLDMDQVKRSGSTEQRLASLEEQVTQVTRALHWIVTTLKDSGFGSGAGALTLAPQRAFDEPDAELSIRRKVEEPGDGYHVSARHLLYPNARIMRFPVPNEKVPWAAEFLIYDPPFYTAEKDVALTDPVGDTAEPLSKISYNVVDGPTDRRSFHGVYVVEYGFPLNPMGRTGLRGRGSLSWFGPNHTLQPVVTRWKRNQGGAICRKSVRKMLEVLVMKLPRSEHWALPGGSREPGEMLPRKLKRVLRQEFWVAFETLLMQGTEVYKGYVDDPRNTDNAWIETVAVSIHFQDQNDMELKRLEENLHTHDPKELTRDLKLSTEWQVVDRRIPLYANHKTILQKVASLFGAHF
UniProt Q01097, 27-1482: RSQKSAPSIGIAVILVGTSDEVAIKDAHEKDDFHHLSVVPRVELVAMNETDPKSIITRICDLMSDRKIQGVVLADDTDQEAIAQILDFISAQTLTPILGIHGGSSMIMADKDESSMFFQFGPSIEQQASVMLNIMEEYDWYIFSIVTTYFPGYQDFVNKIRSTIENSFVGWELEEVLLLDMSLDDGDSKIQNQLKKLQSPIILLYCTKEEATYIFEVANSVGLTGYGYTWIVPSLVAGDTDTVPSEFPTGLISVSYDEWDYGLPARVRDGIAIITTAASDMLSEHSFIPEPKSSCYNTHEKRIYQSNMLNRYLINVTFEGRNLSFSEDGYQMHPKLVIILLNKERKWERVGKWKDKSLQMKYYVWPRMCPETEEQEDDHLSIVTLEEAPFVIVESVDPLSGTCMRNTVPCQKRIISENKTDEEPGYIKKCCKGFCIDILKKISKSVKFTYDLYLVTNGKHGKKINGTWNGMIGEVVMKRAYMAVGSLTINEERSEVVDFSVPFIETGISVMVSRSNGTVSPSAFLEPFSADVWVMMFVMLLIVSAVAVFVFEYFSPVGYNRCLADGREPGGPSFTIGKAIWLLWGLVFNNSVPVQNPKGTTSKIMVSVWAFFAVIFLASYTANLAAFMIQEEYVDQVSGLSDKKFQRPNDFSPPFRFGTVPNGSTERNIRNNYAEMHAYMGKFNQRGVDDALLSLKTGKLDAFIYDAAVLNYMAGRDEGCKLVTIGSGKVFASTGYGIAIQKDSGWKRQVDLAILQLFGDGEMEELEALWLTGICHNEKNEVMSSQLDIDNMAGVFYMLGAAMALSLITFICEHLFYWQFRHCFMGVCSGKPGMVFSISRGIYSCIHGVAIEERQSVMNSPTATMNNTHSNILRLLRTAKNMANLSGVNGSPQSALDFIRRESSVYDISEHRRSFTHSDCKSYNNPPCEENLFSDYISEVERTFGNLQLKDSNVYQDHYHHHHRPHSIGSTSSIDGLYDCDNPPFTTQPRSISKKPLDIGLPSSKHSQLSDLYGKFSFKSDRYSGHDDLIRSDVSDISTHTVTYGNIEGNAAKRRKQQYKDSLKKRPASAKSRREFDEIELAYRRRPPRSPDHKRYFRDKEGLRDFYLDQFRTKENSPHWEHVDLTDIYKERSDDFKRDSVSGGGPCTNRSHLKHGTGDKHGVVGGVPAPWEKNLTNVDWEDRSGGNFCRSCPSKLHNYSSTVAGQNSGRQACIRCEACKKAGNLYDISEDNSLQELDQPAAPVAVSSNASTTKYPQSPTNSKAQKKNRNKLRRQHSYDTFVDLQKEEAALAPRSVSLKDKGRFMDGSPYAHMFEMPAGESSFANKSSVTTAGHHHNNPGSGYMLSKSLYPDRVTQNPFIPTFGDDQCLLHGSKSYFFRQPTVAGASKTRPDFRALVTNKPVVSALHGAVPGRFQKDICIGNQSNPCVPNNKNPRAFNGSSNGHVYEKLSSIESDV

Columns and labels:
Experiment in all cases: co-IP
[1] = biological target: GluN2A (NMDAR subunit GluN2a) (UniProt Q00959)
[2] = biological target: GluN2B (NMDAR subunit GluN2b) (UniProt Q00960)
[3] = biological target: GluN1a (NMDAR subunit GluN1) (UniProt P35439)
[4] = biological target: endogenous TRPM2 of mouse brain (mouse (endogenous in brain)) (UniProt Q91YD4)
[5] = biological target: Flag-tagged TRPM2 (Flag-TRPM2), full length (human) (UniProt O94759)
[6] = biological target: TRPM2-EEQ (E680Q and E681Q) (human) (UniProt O94759)
[7] = biological target: Flag-tagged TRPM2 (Flag-TRPM2), full length (human) (UniProt O94759); remark: listed apart in the source
[8] = biological target: TRPM2-EQE (E673Q and E674Q) (human) (UniProt O94759)
[9] = biological target: TRPM2-QEE (E666Q and E667Q) (human) (UniProt O94759)
[10] = biological target: Flag-TRPM2-NT, N-terminal fragment of TRPM2 (1-727) (human) (UniProt O94759)
[11] = biological target: GFP-TRPM2-CT, C-terminal fragment of TRPM2 (1060-1503) (human) (UniProt O94759)
[12] = biological target: endogenous TRPM2 of mouse brain (mouse (endogenous in brain)) (UniProt Q91YD4); remark: listed apart in the source
[13] = biological target: endogenous GluN2a of mouse brain (mouse (endogenous in brain)) (UniProt P35436)
[14] = biological target: endogenous GluN2b of mouse brain (mouse (endogenous in brain)) (UniProt Q01097)
[15] = biological target: GluN2A (NMDAR subunit GluN2a) (UniProt Q00959); remark: listed apart in the source
[16] = biological target: GluN2B (NMDAR subunit GluN2b) (UniProt Q00960); remark: listed apart in the source

Flag-TRPM2-NT, N-terminal fragment of TRPM2 (1-727) (from UniProt O94759 1-727) (domain or fragment)
binding [1]: binds | binding [2]: binds

GFP-TRPM2-CT, C-terminal fragment of TRPM2 (1060-1503) (from UniProt O94759 1060-1503) (domain or fragment)
binding [1]: no binding | binding [3]: no binding | binding [2]: no binding

TRPM2-QEE (E666Q and E667Q) (from UniProt O94759 1-1503)
binding [1]: binds | binding [2]: binds

endogenous GluN2b of mouse brain (from UniProt Q01097 27-1482)
binding [4]: binds

Flag-TRPM2 N-terminal fragment 1-664 (from UniProt O94759 1-664) (domain or fragment)
binding [1]: no binding | binding [2]: no binding

TRPM2-EEQ (E680Q and E681Q) (from UniProt O94759 1-1503)
binding [1]: binds | binding [2]: binds

TRPM2-EQE (E673Q and E674Q) (from UniProt O94759 1-1503)
binding [1]: no binding | binding [2]: no binding

GluN2B (NMDAR subunit GluN2b) (from UniProt Q00960 27-1482)
binding [5]: binds | binding [6]: binds | binding [7]: binds | binding [8]: no binding | binding [9]: binds | binding [10]: binds

endogenous GluN2a of mouse brain (from UniProt P35436 23-1464)
binding [4]: binds

PKC-γ (over-expressed) (from UniProt P05129 1-697) (enzyme)
binding [7]: binds | binding [11]: no binding | binding [10]: binds

endogenous PKCγ of mouse brain and neurons (from UniProt P63318 1-697) (enzyme)
binding [4]: binds | binding [12]: binds

endogenous TRPM2 of mouse brain (from UniProt Q91YD4 1-1506)
binding [13]: binds | binding [14]: binds

Flag-TRPM2 N-terminal segment 1-570 (from UniProt O94759 1-570) (domain or fragment)
binding [1]: no binding | binding [2]: no binding

Flag-tagged TRPM2 (Flag-TRPM2), full length (from UniProt O94759 1-1503)
binding [1]: binds | binding [2]: binds | binding [15]: binds | binding [16]: binds

Flag-TRPM2 N-terminal segment 1-631 (from UniProt O94759 1-631) (domain or fragment)
binding [1]: no binding | binding [2]: no binding

GluN2A (NMDAR subunit GluN2a) (from UniProt Q00959 23-1464)
binding [5]: binds | binding [6]: binds | binding [7]: binds | binding [8]: no binding | binding [9]: binds | binding [10]: binds
